These are yes or no findings as the source states them, for the method shown. Binding seen in cells or lysates may run through a third protein. For some of these results: A result given as binding can be weak or reduced; the word gives no strength. For some of these results: Tags and fused reporters may be left off the sequences shown. Each block holds one molecule with its values, some of them ahead of it.
Tests used:
[1] = molecular target: GFP-fused TDRD1-ΔcTD4 (full-length TDRD1 without the core Tudor 4 domain) (human) (UniProt Q9BXT4); experiment: co-IP; 22Rv1 cells transfected with TDRD1 constructs, then treated with 15 uM of antiandrogens for 6 hours before harvesting
[2] = molecular target: T1, GFP-fused full-length TDRD1 (Tudor Domain Containing 1) (human) (UniProt Q9BXT4); experiment: co-IP; HeLa cells, GFP-tagged TDRD1 constructs and Flag-tagged SNRPD3 constructs
T1 sequence: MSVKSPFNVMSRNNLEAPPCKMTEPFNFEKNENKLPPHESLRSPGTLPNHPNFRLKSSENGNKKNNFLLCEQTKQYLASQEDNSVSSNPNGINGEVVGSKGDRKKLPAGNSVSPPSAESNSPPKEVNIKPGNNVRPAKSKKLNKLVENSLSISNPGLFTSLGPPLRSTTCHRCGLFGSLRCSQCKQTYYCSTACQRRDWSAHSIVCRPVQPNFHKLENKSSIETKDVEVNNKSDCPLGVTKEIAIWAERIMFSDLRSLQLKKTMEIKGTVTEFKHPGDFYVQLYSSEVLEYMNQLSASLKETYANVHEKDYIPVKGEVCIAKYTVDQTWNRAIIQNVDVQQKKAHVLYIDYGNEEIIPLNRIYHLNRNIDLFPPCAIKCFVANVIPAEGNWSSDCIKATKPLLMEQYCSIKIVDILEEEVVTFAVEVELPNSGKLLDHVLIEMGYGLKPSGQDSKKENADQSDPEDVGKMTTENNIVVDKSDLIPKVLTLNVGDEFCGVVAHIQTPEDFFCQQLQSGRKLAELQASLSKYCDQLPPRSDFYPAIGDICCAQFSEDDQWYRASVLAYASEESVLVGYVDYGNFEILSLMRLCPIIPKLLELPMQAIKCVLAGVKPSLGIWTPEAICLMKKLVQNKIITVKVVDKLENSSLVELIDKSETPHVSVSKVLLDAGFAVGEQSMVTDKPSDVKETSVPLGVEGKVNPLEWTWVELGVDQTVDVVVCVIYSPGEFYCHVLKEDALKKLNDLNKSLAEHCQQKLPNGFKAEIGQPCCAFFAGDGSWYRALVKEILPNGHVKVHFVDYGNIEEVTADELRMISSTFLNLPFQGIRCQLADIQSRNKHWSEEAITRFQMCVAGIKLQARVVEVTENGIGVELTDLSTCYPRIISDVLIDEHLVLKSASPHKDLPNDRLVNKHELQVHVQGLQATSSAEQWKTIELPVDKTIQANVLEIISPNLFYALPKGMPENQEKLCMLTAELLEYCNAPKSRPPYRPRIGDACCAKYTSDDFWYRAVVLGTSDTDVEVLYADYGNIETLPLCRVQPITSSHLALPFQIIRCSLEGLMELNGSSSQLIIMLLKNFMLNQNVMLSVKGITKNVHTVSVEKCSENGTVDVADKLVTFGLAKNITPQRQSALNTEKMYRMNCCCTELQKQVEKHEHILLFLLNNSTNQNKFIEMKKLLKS

By UniProt entry, the sequences of proteins in these tests, tags left out. Where a name states a change or a piece, a line headed by the entry shows the natural chain unless it says otherwise.
UniProt P38432: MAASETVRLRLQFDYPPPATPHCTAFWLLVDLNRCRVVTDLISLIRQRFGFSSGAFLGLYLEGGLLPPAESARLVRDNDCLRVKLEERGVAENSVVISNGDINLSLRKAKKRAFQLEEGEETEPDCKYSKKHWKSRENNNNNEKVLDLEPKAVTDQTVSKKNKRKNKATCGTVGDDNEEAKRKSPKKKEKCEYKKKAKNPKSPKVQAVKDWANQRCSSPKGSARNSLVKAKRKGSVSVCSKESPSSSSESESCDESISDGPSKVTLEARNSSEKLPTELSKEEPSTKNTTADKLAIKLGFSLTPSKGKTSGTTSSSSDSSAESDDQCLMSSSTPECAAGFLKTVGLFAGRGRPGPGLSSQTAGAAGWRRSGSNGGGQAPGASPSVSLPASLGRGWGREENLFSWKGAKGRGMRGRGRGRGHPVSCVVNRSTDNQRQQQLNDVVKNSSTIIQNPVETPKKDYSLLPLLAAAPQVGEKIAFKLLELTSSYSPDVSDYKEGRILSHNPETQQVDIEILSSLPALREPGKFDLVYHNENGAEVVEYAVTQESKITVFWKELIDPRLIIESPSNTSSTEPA
UniProt P62318: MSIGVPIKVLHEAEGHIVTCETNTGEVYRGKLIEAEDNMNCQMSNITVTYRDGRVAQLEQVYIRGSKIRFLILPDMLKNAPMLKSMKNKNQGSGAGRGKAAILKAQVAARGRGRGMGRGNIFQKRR

[3] = molecular target: GFP-fused TDRD1-ΔDYGN (full-length TDRD1 without the 4 conserved residues DYGN of cTD4) (human) (UniProt Q9BXT4); experiment: as above
[4] = molecular target: GFP-fused TDRD1-ΔcTD4 (full-length TDRD1 without the core Tudor 4 domain) (human) (UniProt Q9BXT4); experiment: as above
[5] = molecular target: Flag-tagged human Coilin (human) (UniProt P38432); experiment: co-IP; GFP-tagged TDRD1 or eTD4 constructs and Flag-tagged Coilin constructs (Figure 6B, C, E, G, H); cell line not stated
[6] = molecular target: Flag-tagged Coilin with the RG box deleted (human) (UniProt P38432); experiment: as above

Molecule: endogenous SNRPD3 (from UniProt P62318 1-126)
binding [1]: no binding

Molecule: GFP-fused TDRD1-ΔcTD4 (full-length TDRD1 without the core Tudor 4 domain) (from UniProt Q9BXT4)
binding [5]: binds

B2: GFP-fused TDRD1 eTD4 (a.a. 911-1180) (domain or fragment, UniProt Q9BXT4 911-1180)
chain: NKHELQVHVQGLQATSSAEQWKTIELPVDKTIQANVLEIISPNLFYALPKGMPENQEKLCMLTAELLEYCNAPKSRPPYRPRIGDACCAKYTSDDFWYRAVVLGTSDTDVEVLYADYGNIETLPLCRVQPITSSHLALPFQIIRCSLEGLMELNGSSSQLIIMLLKNFMLNQNVMLSVKGITKNVHTVSVEKCSENGTVDVADKLVTFGLAKNITPQRQSALNTEKMYRMNCCCTELQKQVEKHEHILLFLLNNSTNQNKFIEMKKLLKS
binding [6]: no binding

More lines, now with the values ahead:

binding [2]: no binding
Molecule: Flag-tagged SNRPD3 R5K (from UniProt P62318)

binding [3]: no binding
binding [4]: no binding
Molecule: Flag-tagged wild-type SNRPD3 (from UniProt P62318 1-126)

binding [6]: no binding
B1: GFP-fused full-length TDRD1 (Tudor Domain Containing 1) (protein, UniProt Q9BXT4 1-1180)
chain: MSVKSPFNVMSRNNLEAPPCKMTEPFNFEKNENKLPPHESLRSPGTLPNHPNFRLKSSENGNKKNNFLLCEQTKQYLASQEDNSVSSNPNGINGEVVGSKGDRKKLPAGNSVSPPSAESNSPPKEVNIKPGNNVRPAKSKKLNKLVENSLSISNPGLFTSLGPPLRSTTCHRCGLFGSLRCSQCKQTYYCSTACQRRDWSAHSIVCRPVQPNFHKLENKSSIETKDVEVNNKSDCPLGVTKEIAIWAERIMFSDLRSLQLKKTMEIKGTVTEFKHPGDFYVQLYSSEVLEYMNQLSASLKETYANVHEKDYIPVKGEVCIAKYTVDQTWNRAIIQNVDVQQKKAHVLYIDYGNEEIIPLNRIYHLNRNIDLFPPCAIKCFVANVIPAEGNWSSDCIKATKPLLMEQYCSIKIVDILEEEVVTFAVEVELPNSGKLLDHVLIEMGYGLKPSGQDSKKENADQSDPEDVGKMTTENNIVVDKSDLIPKVLTLNVGDEFCGVVAHIQTPEDFFCQQLQSGRKLAELQASLSKYCDQLPPRSDFYPAIGDICCAQFSEDDQWYRASVLAYASEESVLVGYVDYGNFEILSLMRLCPIIPKLLELPMQAIKCVLAGVKPSLGIWTPEAICLMKKLVQNKIITVKVVDKLENSSLVELIDKSETPHVSVSKVLLDAGFAVGEQSMVTDKPSDVKETSVPLGVEGKVNPLEWTWVELGVDQTVDVVVCVIYSPGEFYCHVLKEDALKKLNDLNKSLAEHCQQKLPNGFKAEIGQPCCAFFAGDGSWYRALVKEILPNGHVKVHFVDYGNIEEVTADELRMISSTFLNLPFQGIRCQLADIQSRNKHWSEEAITRFQMCVAGIKLQARVVEVTENGIGVELTDLSTCYPRIISDVLIDEHLVLKSASPHKDLPNDRLVNKHELQVHVQGLQATSSAEQWKTIELPVDKTIQANVLEIISPNLFYALPKGMPENQEKLCMLTAELLEYCNAPKSRPPYRPRIGDACCAKYTSDDFWYRAVVLGTSDTDVEVLYADYGNIETLPLCRVQPITSSHLALPFQIIRCSLEGLMELNGSSSQLIIMLLKNFMLNQNVMLSVKGITKNVHTVSVEKCSENGTVDVADKLVTFGLAKNITPQRQSALNTEKMYRMNCCCTELQKQVEKHEHILLFLLNNSTNQNKFIEMKKLLKS

From article PMC9980208
